The list shows a part of the results. Cut-off read from the data, not from the text of the source: active = 150% or more and inactive = the rest. Many values rest on one well or one pass, so single values are uncertain.
Each compound was assayed on Staphylococcus aureus JE2-lux inside RAW 264.7 macrophages (assay: intracellular bacterial bioluminescence relative to DMSO vehicle; higher = higher intracellular bacterial metabolic activity). Settings: 10 µM; treatment time 4 h; gentamicin 50 µg/ml.
With O=C1Nc2ccc(Br)cc2/C1=C1/SC(=S)N(NC(=O)c2ccncc2)C1=O the intracellular bacterial bioluminescence was inactive: 95.5%. For O=C(CNCc1cccnc1)Nc1ccc2c(c1)OCO2, the intracellular bacterial bioluminescence was inactive: 109%. In the case of COc1ccc(Br)cc1-c1nc(Cn2nc(C)c3c(C)onc3c2=O)c(C)o1, the intracellular bacterial bioluminescence is reported as inactive: 2.57%. For O=C(O)c1ccc(NS(=O)(=O)c2cc3c4c(cccc4c2)C(=O)NC3=O)cc1, the intracellular bacterial bioluminescence was inactive: 83.8%. With COc1ccc2nc(-n3nc(C)c4c3NC(=O)CC4c3cc(F)ccc3F)sc2c1 (centres undefined) the intracellular bacterial bioluminescence was inactive: 97%. With N#Cc1ccc(C(=O)Nc2cccc3c2C(=O)NC3=O)cc1 the intracellular bacterial bioluminescence was inactive: 71.5%. With CCN(CC)C(=O)c1sc2nc3c(cc2c1N)C(=O)CC(C)(C)C3 the intracellular bacterial bioluminescence was inactive: 137%. For CCNC(=O)CC1Sc2ccc(C(F)(F)F)cc2NC1=O (centres undefined), the intracellular bacterial bioluminescence was inactive: 84.6%. With CSc1nnc(C)c(=O)n1COC(=O)c1ccc(Cl)c([N+](=O)[O-])c1 the intracellular bacterial bioluminescence was inactive: 92%. In the case of COc1ccc(C)cc1NC(=O)C1CCN(C(=O)Nc2ccccc2)CC1, the intracellular bacterial bioluminescence is reported as inactive: 27.3%. With N#C/C(=C/Nc1ccc(F)cc1[N+](=O)[O-])c1nc(-c2ccc(F)cc2)cs1 the intracellular bacterial bioluminescence was inactive: 84.8%. With Cc1cc(=O)n2nc(CN(C(=O)C(C)C)c3ccccc3)nc2[nH]1 the intracellular bacterial bioluminescence was inactive: 118%. CC1=C(C(=O)OC(C)C)C(c2cccnc2)C2=C(CC(C)(C)CC2=O)N1 (centres undefined) was tested, and the intracellular bacterial bioluminescence was inactive: 76.3%. Cc1ccc(NC(=S)NCCCNc2nc3c(C)c(C)ccc3cc2C#N)c(C)c1 was tested, and the intracellular bacterial bioluminescence was inactive: 119%. For C=CCNC(=O)C(=O)Nc1ccc2c(c1)N(S(=O)(=O)c1cccs1)CCC2, the intracellular bacterial bioluminescence was inactive: 105%. In the case of Cc1nn2c(SCC(=O)c3cccc([N+](=O)[O-])c3)nnc2[nH]c1=O, the intracellular bacterial bioluminescence is reported as inactive: 116%. In the case of Cc1nc2cccc(NC(=O)c3cc(=O)c4cc(C)c(C)cc4o3)c2[nH]1, the intracellular bacterial bioluminescence is reported as inactive: 63.5%. In the case of Cc1ccc(S(=O)(=O)NCc2ccc3[nH]c(C)cc3c2)cc1, the intracellular bacterial bioluminescence is reported as inactive: 110%. COCCn1ccc2nc(C)c(C(=O)NCc3ccc(Br)cc3)cc2c1=O was tested, and the intracellular bacterial bioluminescence was active: 153%. In the case of O=C(CC1(O)C(=O)Nc2ccccc21)c1cccc(-n2cccc2)c1 (centres undefined), the intracellular bacterial bioluminescence is reported as inactive: 84.3%. For CCN(CC)C(=O)CSc1ccccc1[N+](=O)[O-], the intracellular bacterial bioluminescence was inactive: 97.1%. For O=C(NCC(c1ccc(Cl)cc1)N1CCCCC1)c1cc(-c2ccc3c(c2)OCCO3)on1 (centres undefined), the intracellular bacterial bioluminescence was inactive: 95.5%. With CCN(CC)c1cc(CNC(=O)Nc2cc(OC)cc(OC)c2)ccn1 the intracellular bacterial bioluminescence was inactive: 70.5%. In the case of CCN1CCN(C(=O)c2nn(-c3ccc(F)cc3)c3c(=O)n(C)cnc23)CC1, the intracellular bacterial bioluminescence is reported as inactive: 99%. In the case of COc1cccc2c(=O)cc(C)n(CC(=O)Nc3ccc(Br)cc3)c12, the intracellular bacterial bioluminescence is reported as inactive: 35.6%. With O=C(CSc1ccc(-c2ccc(Cl)cc2)nn1)NCCc1c[nH]c2ccccc12 the intracellular bacterial bioluminescence was inactive: 80.3%. CCOc1ccc(NC(=O)COc2cccc3c2CCN(C)C3=O)cc1 was tested, and the intracellular bacterial bioluminescence was inactive: 55.2%. In the case of COc1cc(/C=N/NC(=O)CN2CCOCC2)ccc1O, the intracellular bacterial bioluminescence is reported as inactive: 110%. For O=C1Cc2cc(NC(=O)c3cc4ccccc4oc3=O)ccc2N1, the intracellular bacterial bioluminescence was inactive: 56.4%. For CC(=O)c1ccc(NC(=O)CC2Nc3ccccc3NC2=O)cc1 (centres undefined), the intracellular bacterial bioluminescence was inactive: 27.6%. In the case of CC(C)N1CCC(CNC(=O)c2ccc3c(c2)NC(=O)C(C)(C)O3)CC1, the intracellular bacterial bioluminescence is reported as inactive: 113%. Cc1nc2nc(Cc3cccc(F)c3)nn2c(N2CCN(c3ccccn3)CC2)c1C was tested, and the intracellular bacterial bioluminescence was inactive: 47.2%. In the case of Fc1ccc(-c2csc3ncnc(Sc4nnnn4-c4ccccc4)c23)cc1, the intracellular bacterial bioluminescence is reported as inactive: 68.7%. For Cc1ccccc1-n1cc(-c2ccccc2)c2c(NCCCN3CCOCC3)ncnc21, the intracellular bacterial bioluminescence was inactive: 71.2%. In the case of COc1ccc(C2(NC(=O)C3OCOc4ccccc43)CCCCC2)cc1 (centres undefined), the intracellular bacterial bioluminescence is reported as inactive: 54.2%. COc1cccc(CNC(=O)CSc2nnc(-c3cc4ccccc4[nH]3)o2)c1 was tested, and the intracellular bacterial bioluminescence was inactive: 68.2%. CCN1CCN(CC(=O)Nc2ccc(Cl)c(Cl)c2)C(=O)C1=O was tested, and the intracellular bacterial bioluminescence was inactive: 9.12%. For O=S(=O)(Nc1ccc2cn[nH]c2c1)c1ccc(Br)cc1, the intracellular bacterial bioluminescence was inactive: 102%. With C#CCn1/c(=N/C(=O)c2cccc([N+](=O)[O-])c2)sc2cccc(F)c21 the intracellular bacterial bioluminescence was inactive: 109%. For COC(=O)c1sc(-c2ccccc2)cc1NC(=O)c1ccc([N+](=O)[O-])s1, the intracellular bacterial bioluminescence was inactive: 100%. CCCCSc1nc2c(cnn2-c2ccc(C)c(C)c2)c(=O)[nH]1 was tested, and the intracellular bacterial bioluminescence was inactive: 83%. In the case of O=C(CN1C(=O)c2ccccc2S1(=O)=O)NCc1ccc2c(c1)OCO2, the intracellular bacterial bioluminescence is reported as inactive: 125%. In the case of Cc1nc(OCC(=O)NC(C)(C)C)c2c(-c3cccc(F)c3)noc2n1, the intracellular bacterial bioluminescence is reported as inactive: 109%. With Cc1cc(NC2CCCC2)n2ncc(-c3ccc(F)cc3)c2n1 the intracellular bacterial bioluminescence was inactive: 101%. In the case of Cc1nc(SCC(=O)NCc2ccco2)[nH]c(=O)c1C, the intracellular bacterial bioluminescence is reported as inactive: 111%. For O=C(NC(=O)c1ccc(F)cc1)Nc1ccncc1, the intracellular bacterial bioluminescence was inactive: 110%. CCn1cc(SCC(=O)Nc2ccc(OC)cc2)c2ccccc21 was tested, and the intracellular bacterial bioluminescence was inactive: 81.9%. For COc1ccc(CN2C(=O)c3cccc4cccc(c34)C2=O)cc1, the intracellular bacterial bioluminescence was inactive: 122%. With O=C(Nc1ccc(F)cc1F)c1cccnc1-c1ccsc1 the intracellular bacterial bioluminescence was inactive: 66.1%. CCOC(=O)c1cc2c(=O)n3ccccc3nc2n(CCc2ccccc2)/c1=N\C(=O)c1ccccc1 was tested, and the intracellular bacterial bioluminescence was inactive: 63.1%. For CCOC(=O)c1ccc(/N=c2\oc3ccc(OC)cc3cc2C(N)=O)cc1, the intracellular bacterial bioluminescence was inactive: 110%. COc1ccccc1CCNC(=O)C(=O)NCC1OCCN1S(=O)(=O)c1ccc([N+](=O)[O-])cc1 (centres undefined) was tested, and the intracellular bacterial bioluminescence was inactive: 57.3%. Cc1ccc2nnc(-c3ccccc3)c(C(=O)Nc3ccc(F)cc3)c2c1 was tested, and the intracellular bacterial bioluminescence was inactive: 117%. For O=C(CSc1ncnc2c1sc1nc3ccccc3cc12)c1ccc2c(c1)OCCO2, the intracellular bacterial bioluminescence was inactive: 108%. Cc1cc2c(=O)n(Cc3ccco3)c(SCC(=O)Nc3ccc4c(c3)OCO4)nc2s1 was tested, and the intracellular bacterial bioluminescence was inactive: 91.6%. With CN(C)CCCNc1ncnc2sc3c(c12)CCCC3 the intracellular bacterial bioluminescence was inactive: 120%. In the case of CC1CN(C(=O)c2ncoc2-c2ccc(F)cc2)CC(C)O1 (centres undefined), the intracellular bacterial bioluminescence is reported as inactive: 87.5%. O=C(O)c1ccc(C(=O)NCC2CCCO2)c(C(=O)O)c1 (centres undefined) was tested, and the intracellular bacterial bioluminescence was inactive: 120%. For O=C(Nc1cc(-c2cccs2)nnc1O)C1CCC1, the intracellular bacterial bioluminescence was inactive: 25%.
